Values of other authors as cited in patent publication US7807641B2, “Methods and reagents for treating glucose metabolic disorders” (Curis, Inc., priority 1999, dated 2010).
At least one structure is not confirmed: it was looked up by name or label, or the drawing left a doubt.

Tested on: small ducts from rat pancreas
Details: confluent duct monolayer, single treatment preferentially 48 hr; cited from earlier work

SMILES	induction of differentiation
C=C[C@@]1(C)CC(=O)[C@]2(O)[C@@]3(C)[C@@H](O)CCC(C)(C)[C@@H]3[C@H](O)[C@H](OC(C)=O)[C@@]2(C)O1 [forskolin]	found to induce differentiation
C[C@@H]1C[C@H]2[C@@H]3CCC4=CC(=O)C=C[C@]4(C)[C@@]3(F)[C@@H](O)C[C@]2(C)[C@@]1(O)C(=O)CO [Dexamethasone]	found to induce differentiation
